# Measurements published in the supplement of paper PMC8728848.
# The list shows a part of the results.
# B1: MIC2 (Toxoplasma gondii), S8F9G8 (protein)
# chain: MRLQREAVFGLMFACGMWMWPSEVAGGGWSIVDALRKRYDTSRGGDANGVDTSGVEDVIQSESAIGAAEGCTNQLDICFLIDSSGSIGIQNFRLVKQFLHTFLMVLPIGPEEVNNAVVTYSTDVHLQWDLQSPNAVDKQLAAHAVLDMPYKKGSTNTSDGLKACKQILFTGSRPGREHVPKLVIGMTDGESDSDFRTVRAAKEIRELGGIVTVLAVGHYVKHSECRSMCGCSGTSDDDSPCPLYLRADWGQLATAIKPMLKEVCKTLPQDAICSDWSAWSPCSVSCGDGSQIRTRTEVSAPQPGTPTCPDCPAPMGRTCVEQGGLEEIRECSAGVCAVDAGCGVWGEWSAWSASCGNATRKRERTRYNDPPPQGAGRRCENQDPPVLQEQTEEATLAPCITIPPTPPEWAAWSDCTVTCGGGNRHRVRNALPPGLGSQNGESDESLVSKLWPGTDLRQEEACNTSPCPINATCGQFEEWSTCSVSCGGGLKTRSRNPWNEDQQHGGLSCEQQHPGGRTETITCNPQACPVDERPGEWAEWGECSVTCGDGVRERRRGKSLVEAKFGGRTIDQQNEALPEDLKIKNVEYEPCSYPACGASCTYVWSDWNKCVCPMGYQARHAAVKFDYRNKPCDLPTFETKACSCGETNPVPSEGTTPGAPGATGPEQPNQRPLPEGSDENETPTNEEGEQSKKESGSGIAGAIAGGVIGGLILLGAAGGASYHYYLSSSVGSPSAEIEYEADDGATKVVMEEEKETLVPVDDDSDMWME
# Key:
# Assay in all cases: glycan array binding signal (z-score within array); higher = stronger binding
# Settings in all cases: glycan notation: IUPAC condensed, linker removed
# [1] = biological target: Neu5Ac(a2-3)Gal6S(b1-4)[Fuc(a1-3)]GlcNAc
# Procedure, shortened: (§1)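 Glycan array data were curated from 3228 arrays in the Consortium for Functional Glycomics database and kept only where the protein sequence was available. Glycan names were converted to IUPAC-condensed notation, and columns mapping to the same glycan were averaged. The binding signal is a within-array Z-score, averaged across arrays of the same protein sequence at different concentrations or buffers and across linkers. Negative Z-scores can be read as non-binding.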
# Neu5Ac(a2-3)GalNAc = biological target: Neu5Ac(a2-3)GalNAc
# Procedure, shortened: as §1
# [2] = biological target: Neu5Ac(a2-3)GalNAc(b1-4)GlcNAc
# Procedure, shortened: as §1
# [3] = biological target: Neu5Ac(a2-3)[GalNAc(b1-4)]Gal(b1-4)Glc
# Procedure, shortened: as §1
# [4] = biological target: Neu5Ac(a2-3)[GalNAc(b1-4)]Gal(b1-4)GlcNAc
# Procedure, shortened: as §1
# [5] = biological target: Neu5Ac(a2-3)[GalNAc(b1-4)]Gal(b1-4)GlcNAc(b1-3)GalNAc
# Procedure, shortened: as §1
# [6] = biological target: Neu5Ac(a2-3)[Neu5Ac(a2-6)]GalNAc
# Procedure, shortened: as §1
# Neu5Ac(a2-6)Gal = biological target: Neu5Ac(a2-6)Gal
# Procedure, shortened: as §1
# Neu5Ac(a2-6)Gal(b1-4)Glc = biological target: Neu5Ac(a2-6)Gal(b1-4)Glc
# Procedure, shortened: as §1
# [7] = biological target: Neu5Ac(a2-6)Gal(b1-4)GlcNAc
# Procedure, shortened: as §1
# [8] = biological target: Neu5Ac(a2-6)Gal(b1-4)GlcNAc(b1-2)Man(a1-3)Man(b1-4)GlcNAc(b1-4)GlcNAc
# Procedure, shortened: as §1
# [9] = biological target: Neu5Ac(a2-6)Gal(b1-4)GlcNAc(b1-2)Man(a1-3)[Gal(b1-4)GlcNAc(b1-2)Man(a1-6)]Man(b1-4)GlcNAc(b1-4)GlcNAc
# Procedure, shortened: as §1
# [10] = biological target: Neu5Ac(a2-6)Gal(b1-4)GlcNAc(b1-2)Man(a1-3)[GlcNAc(b1-2)Man(a1-6)]Man(b1-4)GlcNAc(b1-4)GlcNAc
# Procedure, shortened: as §1
# [11] = biological target: Neu5Ac(a2-6)Gal(b1-4)GlcNAc(b1-2)Man(a1-3)[GlcNAc(b1-2)Man(b1-4)GlcNAc(b1-2)Man(a1-6)]Man(b1-4)GlcNAc(b1-4)GlcNAc
# Procedure, shortened: as §1
# [12] = biological target: Neu5Ac(a2-6)Gal(b1-4)GlcNAc(b1-2)Man(a1-3)[Man(a1-6)]Man(b1-4)GlcNAc(b1-4)GlcNAc
# Procedure, shortened: as §1
# [13] = biological target: Neu5Ac(a2-6)Gal(b1-4)GlcNAc(b1-2)Man(a1-3)[Neu5Ac(a2-6)Gal(b1-4)GlcNAc(b1-2)Man(a1-6)]Man(b1-4)GlcNAc(b1-4)GlcNAc
# Procedure, shortened: as §1
# [14] = biological target: Neu5Ac(a2-6)Gal(b1-4)GlcNAc(b1-2)Man(a1-6)Man(b1-4)GlcNAc(b1-4)GlcNAc
# Procedure, shortened: as §1
# [15] = biological target: Neu5Ac(a2-6)Gal(b1-4)GlcNAc(b1-2)Man(a1-6)[Gal(b1-4)GlcNAc(b1-2)Man(a1-3)]Man(b1-4)GlcNAc(b1-4)GlcNAc
# Procedure, shortened: as §1
# [16] = biological target: Neu5Ac(a2-6)Gal(b1-4)GlcNAc(b1-2)Man(a1-6)[GlcNAc(b1-2)Man(a1-3)]Man(b1-4)GlcNAc(b1-4)GlcNAc
# Procedure, shortened: as §1
# [17] = biological target: Neu5Ac(a2-6)Gal(b1-4)GlcNAc(b1-2)Man(a1-6)[Man(a1-3)]Man(b1-4)GlcNAc(b1-4)GlcNAc
# Procedure, shortened: as §1
# [18] = biological target: Neu5Ac(a2-6)Gal(b1-4)GlcNAc(b1-3)Gal(b1-3)GlcNAc
# Procedure, shortened: as §1
# [19] = biological target: Neu5Ac(a2-6)Gal(b1-4)GlcNAc(b1-3)Gal(b1-4)GlcNAc
# Procedure, shortened: as §1
# [20] = biological target: Neu5Ac(a2-6)Gal(b1-4)GlcNAc(b1-3)Gal(b1-4)GlcNAc(b1-3)Gal(b1-4)GlcNAc
# Procedure, shortened: as §1
# [21] = biological target: Neu5Ac(a2-6)Gal(b1-4)GlcNAc(b1-3)Gal(b1-4)[Fuc(a1-3)]GlcNAc(b1-3)Gal(b1-4)[Fuc(a1-3)]GlcNAc
# Procedure, shortened: as §1
# [22] = biological target: Neu5Ac(a2-6)Gal(b1-4)GlcNAc(b1-3)GalNAc
# Procedure, shortened: as §1
# [23] = biological target: Neu5Ac(a2-6)Gal(b1-4)GlcNAc6S
# Procedure, shortened: as §1
# Neu5Ac(a2-6)GalNAc = biological target: Neu5Ac(a2-6)GalNAc
# Procedure, shortened: as §1
# [24] = biological target: Neu5Ac(a2-6)GalNAc(b1-4)GlcNAc
# Procedure, shortened: as §1
# [25] = biological target: Neu5Ac(a2-6)GlcNAc(b1-4)GlcNAc
# Procedure, shortened: as §1
# [26] = biological target: Neu5Ac(a2-6)GlcNAc(b1-4)GlcNAc(b1-4)GlcNAc
# Procedure, shortened: as §1
binder,measurement,setting,value
B1,glycan array binding signal (z-score),[1],0.272
same,glycan array binding signal (z-score),Neu5Ac(a2-3)GalNAc,-0.716
same,glycan array binding signal (z-score),[2],-0.701
same,glycan array binding signal (z-score),[3],0.279
same,glycan array binding signal (z-score),[4],0.446
same,glycan array binding signal (z-score),[5],1.93
same,glycan array binding signal (z-score),[6],0.06
same,glycan array binding signal (z-score),Neu5Ac(a2-6)Gal,-0.435
same,glycan array binding signal (z-score),Neu5Ac(a2-6)Gal(b1-4)Glc,0.18
same,glycan array binding signal (z-score),[7],-0.177
same,glycan array binding signal (z-score),[8],-0.421
same,glycan array binding signal (z-score),[9],-0.759
same,glycan array binding signal (z-score),[10],-0.512
same,glycan array binding signal (z-score),[11],0.41
same,glycan array binding signal (z-score),[12],0.135
same,glycan array binding signal (z-score),[13],-0.649
same,glycan array binding signal (z-score),[14],-0.954
same,glycan array binding signal (z-score),[15],-0.929
same,glycan array binding signal (z-score),[16],-0.334
same,glycan array binding signal (z-score),[17],1.09
same,glycan array binding signal (z-score),[18],1.03
same,glycan array binding signal (z-score),[19],-0.391
same,glycan array binding signal (z-score),[20],0.566
same,glycan array binding signal (z-score),[21],-0.269
same,glycan array binding signal (z-score),[22],0.606
same,glycan array binding signal (z-score),[23],-0.507
same,glycan array binding signal (z-score),Neu5Ac(a2-6)GalNAc,-0.929
same,glycan array binding signal (z-score),[24],-0.706
same,glycan array binding signal (z-score),[25],0.029
same,glycan array binding signal (z-score),[26],0.451

# In a second layout: results already given
binder	measurement	setting	value
B1	glycan array binding signal (z-score)	[14]	-0.954
same	glycan array binding signal (z-score)	[15]	-0.929
same	glycan array binding signal (z-score)	[16]	-0.334
same	glycan array binding signal (z-score)	[17]	1.09
same	glycan array binding signal (z-score)	[18]	1.03
